{"source": "patent US11161864B2", "about": "“Sting agonists” (Venenum Biodesign, LLC, priority 2018, dated 2021)", "key": {"[1]": {"test_system": "STING pathway genes, human PBMCs", "assay": "qRT-PCR assay, human PBMCs", "format": "cell-based", "conditions": "human PBMC, 6 hours, vs 2′,3′-cGAMP and ADU-S100"}, "MB49-luc tumor [2]": {"test_system": "MB49-luc tumor", "assay": "MB49-luc tumor bearing mice (cells implanted into bladder wall), intra-tumoral treatment", "format": "in vivo, C57BL/6J mice"}, "MC-38 tumor [3]": {"test_system": "MC-38 tumor", "assay": "MC-38 tumor bearing mice treated with Example 1C and anti-PD-1, anti-PD-L1, anti-CTLA4", "format": "in vivo, C57BL/6J mice", "conditions": "for animals with complete regression of the tumors: by Day 26; for tumor free mice after rechallenge: Day 27 of the rechallenge", "text": "The animals were terminated when the tumor size reached 2,000 mm^3."}, "MC-38 tumor [4]": {"test_system": "MC-38 tumor", "assay": "MC-38 tumor bearing mice treated with Example 1C and anti-PD-1", "conditions": "for animals with complete regression of the tumors: by Day 30"}, "CT-26 tumor": {"test_system": "CT-26 tumor", "assay": "CT-26 tumor bearing mice, intra-tumoral treatment and re-challenge"}, "MB49-luc tumor [5]": {"test_system": "MB49-luc tumor", "assay": "Orthotopically implanted MB49-luc tumor bearing mice, intravesical instillation", "conditions": "25, 50, 100 μg intravesical instillation Days 4, 7, 11; Day 14; one-way ANOVA, P<0.001"}}, "note": "At least one compound was matched to its structure with a doubt left."}
{"smiles": "Nc1nc2c(ncn2[C@@H]2O[C@@H]3COP(=O)(S)OCCn4c(nc5cncnc54)COP(=O)(S)O[C@@H]2[C@@H]3F)c(=O)[nH]1", "note": "(single isomer, unassigned) [Example 1C]", "values": [{"measurement": "induction of IFN-β and its target genes CXCL10, IFIT3 and TNFα", "setting": "[1]", "result": "significantly higher than endogenous STING agonist and ADU-S100"}, {"measurement": "bladder (primary) tumor, bioluminescent imaging", "setting": "MB49-luc tumor [2]; 10 μg/mouse intra-tumoral Days 0, 3, 7, 10, 14, by Day 10", "result": "statistically significant reduction of the bladder tumor"}, {"measurement": "tumor load in the chest areas, bioluminescent imaging", "setting": "MB49-luc tumor [2]; 10 μg/mouse intra-tumoral, by Day 10", "result": "trend towards significant reduction of the tumor load in the chest areas"}, {"measurement": "survival time compared with vehicle treated controls", "setting": "MB49-luc tumor [2]; 10 μg/mouse intra-tumoral, pseudo-survival arm", "result": "significantly extended the survival time"}, {"measurement": "animals with complete regression of the tumors", "setting": "MC-38 tumor [3]; 5 μg Example 1C + anti-PD-1 + anti-PD-L1", "result": "8 out of 10"}, {"measurement": "animals with complete regression of the tumors", "setting": "MC-38 tumor [3]; 5 μg Example 1C + anti-PD-L1 + anti-CTLA4", "result": "6 out of 10"}, {"measurement": "animals with complete regression of the tumors", "setting": "MC-38 tumor [3]; 5 μg Example 1C monotherapy", "result": "2 out of 10"}, {"measurement": "tumor free mice after rechallenge", "setting": "MC-38 tumor [3]; previously Example 1C + anti-PD-1 + anti-PD-L1", "result": "5 out of 8"}, {"measurement": "tumor free mice after rechallenge", "setting": "MC-38 tumor [3]; previously Example 1C + anti-PD-L1 + anti-CTLA4", "result": "6 out of 6"}, {"measurement": "tumor free mice after rechallenge", "setting": "MC-38 tumor [3]; previously Example 1C monotherapy", "result": "1 out of 2"}, {"measurement": "animals with complete regression of the tumors", "setting": "MC-38 tumor [4]; 5 μg Example 1C + anti-PD-1", "result": "7 out of 10"}, {"measurement": "animals with complete regression of the tumors", "setting": "MC-38 tumor [4]; 5 μg Example 1C monotherapy", "result": "1 out of 10"}, {"measurement": "animals with no signs of tumor growth after re-challenge", "setting": "MC-38 tumor [4]; previously treated with Example 1C as monotherapy or with anti-PD-1, by re-challenge Day 14", "result": "8 out of 8"}, {"measurement": "animals with complete regression of the tumors", "setting": "CT-26 tumor; 50 μg intra-tumoral Days 0, 3, 7, by Day 30", "result": "8 out of 10"}, {"measurement": "mice with no signs of tumor growth after re-challenge", "setting": "CT-26 tumor; previously treated with 50 μg Example 1C, 33 days after the re-challenge", "result": "6 out of 8"}, {"measurement": "animals with signs of tumor growth after re-challenge", "setting": "CT-26 tumor; previously treated with 50 μg Example 1C, by re-challenge Day 30", "result": "2 out of 8"}, {"measurement": "effect of treatment on BLI values", "setting": "MB49-luc tumor [5]", "result": "significant"}]}
